Values from PubChem BioAssay AID1159578 (Peter MacCallum Cancer Centre, 2015).
In all, the deposit lists about 18,000 reagents; this is a part drawn at random. About 1,030 of all reagents (5.7%) count as active. 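Inactive calls also include pools with fewer than 3300 nuclei, whose migration was not assessed.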 The raw values are shown without normalisation. Entries without a mark were called inactive. Not all columns of the deposit are shown.

- Test: 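Genome-wide hunt for genes controlling movement of lymphatic endothelial cells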 (primary screen)
- System: human lymphatic endothelial cells
- Reagents: siRNA pool against human genes, 40 nM
- Time to read-out: 48 h after transfection
- Read-out: 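Cells stained with dye and imaged after a scratch; covered wound area and nuclei counted, duplicates averaged, migration set against mock wells and turned into a robust z-score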
- Direction: migration robust z-score: higher = faster migration into the scratch; nuclei per well: higher = more cells in the well
- Hit rule: 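Migration changed when robust z exceeds 2 or falls below -2 and mean nuclei number is at least 3300; otherwise not called changed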
- Calls: active = migration changed; inactive = no migration change, or too few cells

gene knocked down	migration robust z-score	migration class with cell-count check	nuclei per well, duplicate mean
AMER2 (GeneID 219287)	-1.9	migration z between -2 and 2; enough cells	5743
FOSL2 (GeneID 2355)	-1.48	migration z between -2 and 2; enough cells	4906
BOLA3 (GeneID 388962)	0.74	migration z between -2 and 2; enough cells	4930
C16orf89 (GeneID 146556)	1.16	migration z between -2 and 2; enough cells	6462
GLYCTK (GeneID 132158)	0.05	migration z between -2 and 2; enough cells	5226
USP26 (GeneID 83844)	0.36	migration z between -2 and 2; enough cells	6132
RNF31 (GeneID 55072)	1.34	migration z between -2 and 2; enough cells	7296
HHEX (GeneID 3087)	-0.76	migration z between -2 and 2; enough cells	4522
ZCRB1 (GeneID 85437)	0.97	migration z between -2 and 2; enough cells	6016
RFPL4A (GeneID 342931)	-2.21 (active)	migration z below -2; enough cells	4750
HSD3B7 (GeneID 80270)	-0.08	migration z between -2 and 2; enough cells	5216
SAG (GeneID 6295)	-1.19	migration z between -2 and 2; enough cells	5095
GEN1 (GeneID 348654)	-0.88	migration z between -2 and 2; enough cells	5942
FUNDC2 (GeneID 65991)	-0.58	migration z between -2 and 2; enough cells	5766
PRPF31 (GeneID 26121)	1.33	migration z between -2 and 2; enough cells	5536
PM20D2 (GeneID 135293)	-0.35	migration z between -2 and 2; enough cells	6058
UMOD (GeneID 7369)	1.94	migration z between -2 and 2; enough cells	5472
ELOVL5 (GeneID 60481)	2.08 (active)	migration z above 2; enough cells	5146
HAS2 (GeneID 3037)	1.27	migration z between -2 and 2; enough cells	7142
STOML2 (GeneID 30968)	-0.93	migration z between -2 and 2; enough cells	6097
ADNP2 (GeneID 22850)	-3.31 (active)	migration z below -2; enough cells	4694
H2AB3 (GeneID 83740)	1.28	migration z between -2 and 2; enough cells	5108
MYCBP (GeneID 26292)	-0.67	migration z between -2 and 2; enough cells	5961
MROH9 (GeneID 80133)	-0.12	migration z between -2 and 2; enough cells	6677
TM9SF4 (GeneID 9777)	-0.72	migration z between -2 and 2; enough cells	5476
SPATA8 (GeneID 145946)	0.84	migration z between -2 and 2; enough cells	6313
CD200R1 (GeneID 131450)	-0.85	migration z between -2 and 2; enough cells	5546
TSR3 (GeneID 115939)	-0.44	migration z between -2 and 2; enough cells	5796
LRRC57 (GeneID 255252)	-2.87 (active)	migration z below -2; enough cells	4532
ZNF256 (GeneID 10172)	0.66	migration z between -2 and 2; enough cells	6135
UROD (GeneID 7389)	0.38	migration z between -2 and 2; enough cells	5676
H2AC16 (GeneID 8332)	-0.38	migration z between -2 and 2; enough cells	4190
FILIP1 (GeneID 27145)	-0.45	migration z between -2 and 2; enough cells	5150
EXT1 (GeneID 2131)	0.96	migration z between -2 and 2; enough cells	5916
RDH10 (GeneID 157506)	0.99	migration z between -2 and 2; enough cells	5620
SNTA1 (GeneID 6640)	1.01	migration z between -2 and 2; enough cells	4816
GPR4 (GeneID 2828)	0.83	migration z between -2 and 2; enough cells	4906
TLR1 (GeneID 7096)	0.29	migration z between -2 and 2; enough cells	5904
DNM3 (GeneID 26052)	1.64	migration z between -2 and 2; enough cells	4956
STIM1 (GeneID 6786)	-0.79	migration z between -2 and 2; enough cells	5750
FOXD1 (GeneID 2297)	-0.42	migration z between -2 and 2; enough cells	4195
SSPN (GeneID 8082)	-1.46	migration z between -2 and 2; enough cells	5495
FOLR2 (GeneID 2350)	-0.68	migration z between -2 and 2; enough cells	3425
CNKSR1 (GeneID 10256)	-2.74 (active)	migration z below -2; enough cells	4298
CTDSPL2 (GeneID 51496)	0.37	migration z between -2 and 2; enough cells	3800
TENT2 (GeneID 167153)	1.94	migration z between -2 and 2; enough cells	6323
M6PR (GeneID 4074)	0.7	migration z between -2 and 2; enough cells	5724
HES5 (GeneID 388585)	-0.58	migration z between -2 and 2; enough cells	4986
H4C11 (GeneID 8363)	-1.14	migration z between -2 and 2; enough cells	4640
ERCC6 (GeneID 2074)	-0.86	migration z between -2 and 2; enough cells	5508
NDUFV1 (GeneID 4723)	0.08	migration z between -2 and 2; enough cells	5786
CLRN3 (GeneID 119467)	2.23 (active)	migration z above 2; enough cells	6188
OR5H2 (GeneID 79310)	0.78	migration z between -2 and 2; enough cells	5294
TATDN3 (GeneID 128387)	0.59	migration z between -2 and 2; enough cells	5664
ACBD4 (GeneID 79777)	-1.15	migration z between -2 and 2; enough cells	3457
F11 (GeneID 2160)	0.29	migration z between -2 and 2; enough cells	5400
SERPIND1 (GeneID 3053)	-1.22	migration z between -2 and 2; enough cells	4632

Hits, of those listed so far:
gene knocked down	migration robust z-score	migration class with cell-count check	nuclei per well, duplicate mean
RFPL4A (GeneID 342931)	-2.21 (active)	migration z below -2; enough cells	4750
ELOVL5 (GeneID 60481)	2.08 (active)	migration z above 2; enough cells	5146
ADNP2 (GeneID 22850)	-3.31 (active)	migration z below -2; enough cells	4694
LRRC57 (GeneID 255252)	-2.87 (active)	migration z below -2; enough cells	4532
CNKSR1 (GeneID 10256)	-2.74 (active)	migration z below -2; enough cells	4298
CLRN3 (GeneID 119467)	2.23 (active)	migration z above 2; enough cells	6188
